Consider 3 substances from article PMC12332157 (EJNMMI Research, 2025).

Starred links: 1 amine or outer side, 2 acyl side, 3 side chain; linkers in the order of their positions; H or OH if unused. Non-standard residues stand in square brackets, D forms with d. *: point of attachment. NOTA = O=C(O)CN1CCN(CC(=O)O)CCN(CC(=O)*)CC1; Sta = CC(C)C[C@H](N)[C@@H](O)CC(=O)O; X2 = O=C(COc1cccc(CN[*:1])c1)[*:2]; X1 = O=C(Cc1ccccc1CCN[*:1])[*:2]; X3 = O=C(COc1ccccc1CN[*:1])[*:2]

This data set in a line: general procedure: Fmoc solid-phase peptide synthesis; Fmoc Rink Amide MBHA resin (loading 0.69 mmol/g); PyBOP/DIPEA. Particulars: whole synthesis, scale 15.5 µmol, TFA salt.
In the case of “Ac-K(NOTA)[X1][dF]QWAVGH[Sta]L-NH2 (SMILES CC(=O)N[C@@H](CCCCNC(=O)CN1CCN(CC(=O)O)CCN(CC(=O)O)CC1)C(=O)NCCc1ccccc1CC(=O)N[C@H](Cc1ccccc1)C(=O)N[C@@H](CCC(N)=O)C(=O)N[C@@H](Cc1c[nH]c2ccccc12)C(=O)N[C@@H](C)C(=O)N[C@H](C(=O)NCC(=O)N[C@@H](Cc1c[nH]cn1)C(=O)N[C@@H](CC(C)C)[C@@H](O)CC(=O)N[C@@H](CC(C)C)C(N)=O)C(C)C)”, the isolated mass turned out to be 3.6 mg and the isolated yield is reported as 12%.
Taken in the same sequence, the figures for “Ac-K(NOTA)[X2][dF]QWAVGH[Sta]L-NH2 (SMILES CC(=O)N[C@@H](CCCCNC(=O)CN1CCN(CC(=O)O)CCN(CC(=O)O)CC1)C(=O)NCc1cccc(OCC(=O)N[C@H](Cc2ccccc2)C(=O)N[C@@H](CCC(N)=O)C(=O)N[C@@H](Cc2c[nH]c3ccccc23)C(=O)N[C@@H](C)C(=O)N[C@H](C(=O)NCC(=O)N[C@@H](Cc2c[nH]cn2)C(=O)N[C@@H](CC(C)C)[C@@H](O)CC(=O)N[C@@H](CC(C)C)C(N)=O)C(C)C)c1)” were 4.3 mg and 15%.
In the same order, the values of “Ac-K(NOTA)[X3][dF]QWAVGH[Sta]L-NH2 (SMILES CC(=O)N[C@@H](CCCCNC(=O)CN1CCN(CC(=O)O)CCN(CC(=O)O)CC1)C(=O)NCc1ccccc1OCC(=O)N[C@H](Cc1ccccc1)C(=O)N[C@@H](CCC(N)=O)C(=O)N[C@@H](Cc1c[nH]c2ccccc12)C(=O)N[C@@H](C)C(=O)N[C@H](C(=O)NCC(=O)N[C@@H](Cc1c[nH]cn1)C(=O)N[C@@H](CC(C)C)[C@@H](O)CC(=O)N[C@@H](CC(C)C)C(N)=O)C(C)C)” are 3.9 mg and 14%.
